Publication PMC4186968, “Molecular Basis for Coordinating Transcription Termination with Noncoding RNA Degradation” (Molecular Cell, 2014)
No constants are given. Whether binding was seen depends on the method and setting. Binding seen in cells or lysates may run through a third protein. Binding can be weak; no strength is given.

The chains behind the UniProt entries cited, without tags or fusion partners. Where a name states a change or a piece, a line headed by the entry shows the natural chain unless it says otherwise.
UniProt P53617: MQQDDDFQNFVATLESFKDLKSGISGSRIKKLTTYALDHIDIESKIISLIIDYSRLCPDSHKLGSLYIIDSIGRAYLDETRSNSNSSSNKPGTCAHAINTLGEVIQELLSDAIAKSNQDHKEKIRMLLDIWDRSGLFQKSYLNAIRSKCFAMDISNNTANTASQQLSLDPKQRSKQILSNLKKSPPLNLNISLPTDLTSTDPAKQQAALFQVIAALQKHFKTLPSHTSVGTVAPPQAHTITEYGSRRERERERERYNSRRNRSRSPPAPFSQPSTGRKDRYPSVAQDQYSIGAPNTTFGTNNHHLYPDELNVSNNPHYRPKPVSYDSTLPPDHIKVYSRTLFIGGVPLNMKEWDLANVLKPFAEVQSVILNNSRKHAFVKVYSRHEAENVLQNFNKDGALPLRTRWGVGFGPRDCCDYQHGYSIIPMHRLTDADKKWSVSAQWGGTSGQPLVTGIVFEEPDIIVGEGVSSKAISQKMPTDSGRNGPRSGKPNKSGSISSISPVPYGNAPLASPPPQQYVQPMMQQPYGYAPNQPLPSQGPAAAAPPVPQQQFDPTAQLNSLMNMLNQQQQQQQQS

T1: recombinant Rrp6-Halo (S. cerevisiae) (UniProt Q12149)
T1 sequence: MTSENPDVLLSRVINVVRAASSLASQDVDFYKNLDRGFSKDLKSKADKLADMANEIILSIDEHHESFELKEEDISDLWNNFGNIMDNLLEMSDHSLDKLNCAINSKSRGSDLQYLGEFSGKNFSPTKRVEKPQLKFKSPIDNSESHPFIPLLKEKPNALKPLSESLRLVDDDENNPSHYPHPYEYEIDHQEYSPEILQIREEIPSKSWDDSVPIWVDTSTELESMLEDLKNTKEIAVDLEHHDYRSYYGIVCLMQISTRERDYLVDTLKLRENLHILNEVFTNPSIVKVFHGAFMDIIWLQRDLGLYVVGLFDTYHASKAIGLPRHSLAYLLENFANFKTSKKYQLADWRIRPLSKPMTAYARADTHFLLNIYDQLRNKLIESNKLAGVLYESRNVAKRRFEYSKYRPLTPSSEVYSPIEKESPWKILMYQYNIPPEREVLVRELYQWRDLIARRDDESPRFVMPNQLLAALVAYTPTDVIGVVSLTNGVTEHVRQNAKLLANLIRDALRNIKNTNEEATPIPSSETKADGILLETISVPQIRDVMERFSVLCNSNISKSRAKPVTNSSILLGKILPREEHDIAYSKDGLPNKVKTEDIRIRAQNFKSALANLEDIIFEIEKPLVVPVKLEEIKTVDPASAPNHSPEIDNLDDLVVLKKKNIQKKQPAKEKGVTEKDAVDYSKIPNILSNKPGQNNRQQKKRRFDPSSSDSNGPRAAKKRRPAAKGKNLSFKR


How the values were obtained:
[1] = target: T1, recombinant Rrp6-Halo (S. cerevisiae); assay: pull-down; recombinant Rrp6-Halo as bait, E. coli extracts with His-tagged Nrd1 variants; extracts treated with RNase A or rNrd1-ΔRRM used
[2] = target: Nrd1ΔCIDp-TAP (S. cerevisiae) (UniProt P53617); assay: co-IP; Nrd1p-TAP or Nrd1ΔCIDp-TAP immunopurified from yeast extracts treated with RNase; eluted by TEV cleavage; western blot

| binding [1] | binding [2] | Molecule |
| --- | --- | --- |
| binds | – | rNrd1-ΔRRM (from UniProt P53617) |
| binds | – | rNrd1ΔCID (from UniProt P53617) |
| – | binds | Nab3p (protein, UniProt P38996 1-802) MSDENHNSDVQDIPSPELSVDSNSNENELMNNSSADDGIEFDAPEEEREAEREEENEEQHELEDVNDEEEEDKEEKGEENGEVINTEEEEEEEHQQKGGNDDDDDDNEEEEEEEEDDDDDDDDDDDDEEEEEEEEEEGNDNSSVGSDSAAEDGEDEEDKKDKTKDKEVELRRETLEKEQKDVDEAIKKITREENDNTHFPTNMENVNYDLLQKQVKYIMDSNMLNLPQFQHLPQEEKMSAILAMLNSNSDTALSVPPHDSTISTTASASATSGARSNDQRKPPLSDAQRRMRFPRADLSKPITEEEHDRYAAYLHGENKITEMHNIPPKSRLFIGNLPLKNVSKEDLFRIFSPYGHIMQINIKNAFGFIQFDNPQSVRDAIECESQEMNFGKKLILEVSSSNARPQFDHGDHGTNSSSTFISSAKRPFQTESGDMYNDDNGAGYKKSRRHTVSCNIFVKRTADRTYAIEVFNRFRDGTGLETDMIFLKPRMELGKLINDAAYNGVWGVVLVNKTHNVDVQTFYKGSQGETKFDEYISISADDAVAIFNNIKNNRNNSRPTDYRAMSHQQNIYGAPPLPVPNGPAVGPPPQTNYYQGYSMPPPQQQQQQPYGNYGMPPPSHDQGYGSQPPIPMNQSYGRYQTSIPPPPPQQQIPQGYGRYQAGPPPQPPSQTPMDQQQLLSAIQNLPPNVVSNLLSMAQQQQQQPHAQQQLVGLIQSMQGQAPQQQQQQLGGYSSMNSSSPPPMSTNYNGQNISAKPSAPPMSHQPPPPQQQQQQQQQQQQQQQQPAGNNVQSLLDSLAKLQK |
